Test results reported in the supplement of paper PMC4604168 (melanoma cell lines).
The other results are listed elsewhere or left out. Many values rest on one well or one pass, so single values are uncertain.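 The apoptosis fraction was the count of cleaved-PARP antibody-stained nuclei relative to all DNA-stained nuclei, imaged in 1,536-well plates. Screening doses were set so most cells survived, and baseline and induced cleaved-PARP levels vary greatly across cell lines.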

Key:
Assay in all cases: cleaved PARP positive nuclei fraction relative to DMSO control; melanoma cells; higher = more apoptosis
Conditions in all cases: library dose: low library concentration; 72 h
A101D = test system: A101D
A2058 = test system: A2058
A375 = test system: A375
C32 = test system: C32
CBRC013 = test system: CBRC013 (line from a melanoma biopsy)
CBRC014 = test system: CBRC014 (line from a melanoma biopsy)
CBRC016 = test system: CBRC016 (line from a melanoma biopsy)
CBRC017 = test system: CBRC017 (line from a melanoma biopsy)
CBRC034 = test system: CBRC034 (line from a melanoma biopsy)
COLO792 = test system: COLO792
COLO800 = test system: COLO800
COLO829 = test system: COLO829
G361 = test system: G361
IPC-298 = test system: IPC-298
IST-MEL1 = test system: IST-MEL1
LOXIMVI = test system: LOXIMVI
501Mel = test system: 501Mel
LB2518-MEL = test system: LB2518-MEL

Compound | cleaved PARP positive nuclei fraction (A101D) | cleaved PARP positive nuclei fraction (A2058) | cleaved PARP positive nuclei fraction (A375) | cleaved PARP positive nuclei fraction (C32) | cleaved PARP positive nuclei fraction (CBRC013) | cleaved PARP positive nuclei fraction (CBRC014) | cleaved PARP positive nuclei fraction (CBRC016) | cleaved PARP positive nuclei fraction (CBRC017) | cleaved PARP positive nuclei fraction (CBRC034) | cleaved PARP positive nuclei fraction (COLO792) | cleaved PARP positive nuclei fraction (COLO800) | cleaved PARP positive nuclei fraction (COLO829) | cleaved PARP positive nuclei fraction (G361) | cleaved PARP positive nuclei fraction (IPC-298) | cleaved PARP positive nuclei fraction (IST-MEL1) | cleaved PARP positive nuclei fraction (LOXIMVI) | cleaved PARP positive nuclei fraction (501Mel) | cleaved PARP positive nuclei fraction (LB2518-MEL)
CCc1ccc(CCOc2ccc(CC3SC(=O)NC3=O)cc2)nc1 (centres undefined) [pioglitazone] + O=C(O)C(=O)Nc1sc2c(c1C(=O)O)CCNC2 [TCS401] (first compound 2 µM, partner dose 1.66667 µM) | 117% | 87.8% | 43.4% | 70.7% | 60.2% | 87.9% | 84% | 87.6% | 436% | 116% | 99.6% | 91.9% | 116% | 448% | 59.1% | 90.9% |  | 
COC(=O)c1sccc1S(=O)(=O)Nc1ccc(Nc2ccccc2)cc1OC + O=C(O)C(=O)Nc1sc2c(c1C(=O)O)CCNC2 [TCS401] (first compound 1 µM, partner dose 1.66667 µM) | 108% | 103% | 150% | 69.5% | 408% | 104% | 31.9% | 94.8% | 180% | 73% | 73.3% | 94% | 95.2% | 40.6% | 58% | 74.6% |  | 
COc1cc2c(Oc3ccc4[nH]c(C)cc4c3F)ncnc2cc1OCCCN1CCCC1 [cediranib] + c1cc(-c2cnn3cc(-c4ccc(OCCN5CCCCC5)cc4)cnc23)ccn1 [Dorsomorphin] (first compound 0.4 µM, partner dose 0.4 µM) | 122% | 53.3% | 114% | 327% | 124% | 229% | 114% | 78.8% | 164% | 56.8% | 130% | 85.2% | 77.6% | 126% | 63.9% | 78.5% |  | 
N#Cc1c(O)c2c(-c3ccc(-c4ccccc4O)cc3)csc2[nH]c1=O + O=C1NC(=O)/C(=C/c2ccc(-c3ccc(F)cc3O)o2)S1 [AS252424] (first compound 2 µM, partner dose 1 µM) | 78.2% | 112% | 182% | 31.9% | 74.3% | 103% | 73.6% | 70.2% | 123% | 230% | 50.6% | 177% | 99.6% | 40.1% | 68.9% | 44.3% | 139% | 95%
O=C(Nc1ccccc1)c1cc([N+](=O)[O-])ccc1Cl + COC(=O)c1sccc1S(=O)(=O)Nc1ccc(Nc2ccccc2)cc1OC [GSK0660] (first compound 2 µM, partner dose 1 µM) | 152% | 40.6% | 72.4% | 68.8% | 88.3% | 96.7% | 91.2% | 113% | 81.2% | 98.8% | 56.7% | 150% | 40.8% | 157% | 141% | 57.2% | 84.2% | 162%
NCC(=O)Nc1ccc(-n2nc(C(F)(F)F)cc2-c2ccc3c(ccc4ccccc43)c2)cc1 + COc1cc(N2CCC(N3CCN(C)CC3)CC2)ccc1Nc1ncc(Cl)c(Nc2ccccc2S(=O)(=O)C(C)C)n1 [NVP-TAE684] (first compound 1 µM, partner dose 0.08 µM) | 56.1% | 47.6% | 4730% | 56.6% | 119% | 82.3% | 79.9% | 79.5% | 187% | 78.7% | 125% | 167% | 69.2% | 248% | 188% | 194% |  | 
CN(NC(=O)CC(=O)NN(C)C(=S)c1ccccc1)C(=S)c1ccccc1 + c1cc(-c2cnn3cc(-c4ccc(OCCN5CCCCC5)cc4)cnc23)ccn1 [Dorsomorphin] (first compound 0.006 µM, partner dose 0.4 µM) | 221% | 434% | 5970% | 110% | 564% | 577% | 147% | 233% | 224% | 140% | 111% | 178% | 302% | 64.7% | 122% | 96.2% |  | 
CN(C)S(=O)(=O)c1ccc2c(c1)/C(=C/c1cc3c([nH]1)CCCC3)C(=O)N2 + Oc1nc(-c2ccc(C(F)(F)F)cc2)nc2c1CSCC2 [XAV939] (first compound 0.4 µM, partner dose 2 µM) | 102% | 59.9% | 27.7% | 200% | 87.9% | 104% | 92.3% | 74.7% | 131% | 115% | 107% | 96.1% | 129% | 73.6% | 85.4% | 58.2% | 68.4% | 163%
COc1cc2ncnc(Nc3ccc(Oc4ccccc4)cc3)c2cc1OC + O=C1NC(=O)/C(=C/c2ccc(-c3ccc(F)cc3O)o2)S1 [AS252424] (first compound 2 µM, partner dose 1 µM) | 117% | 89.7% | 44.8% | 69.5% | 68.2% | 94.1% | 83.7% | 87.8% | 76.1% | 213% | 70.2% | 85.9% | 53.9% | 44.5% | 82.5% | 67.6% |  | 
COC(=O)c1sccc1S(=O)(=O)Nc1ccc(Nc2ccccc2)cc1OC + Oc1cc(-c2nc(-c3ccccc3)[nH]c2-c2ccncc2)ccc1Cl [L779450] (first compound 1 µM, partner dose 0.2 µM) | 69% | 96% | 28.2% | 49.2% | 113% | 106% | 87.8% | 89.4% | 91.7% | 104% | 101% | 51.8% | 137% | 84.1% | 84.5% | 46.7% |  | 
N#Cc1c(O)c2c(-c3ccc(-c4ccccc4O)cc3)csc2[nH]c1=O + COC(=O)c1sccc1S(=O)(=O)Nc1ccc(Nc2ccccc2)cc1OC [GSK0660] (first compound 2 µM, partner dose 1 µM) | 94.4% | 148% | 22.5% | 101% | 209% | 98.8% | 44.1% | 85.7% | 85.7% | 79.9% | 77.7% | 70.4% | 182% | 234% | 79.1% | 97.8% |  | 
c1cc(-c2cnn3cc(-c4ccc(OCCN5CCCCC5)cc4)cnc23)ccn1 [Dorsomorphin] + CCCCCCCCCCCC1=C(O)C(=O)C=C(O)C1=O [Embelin] (first compound 0.4 µM, partner dose 1.2 µM) | 35.6% | 71.8% | 72% | 131% | 138% | 80.8% | 99.8% | 73.9% | 73.2% | 39.3% | 105% | 98.5% | 124% | 174% | 169% | 73.5% |  | 
CCN(CC)CCCCNc1ncc2cc(-c3cc(OC)cc(OC)c3)c(NC(=O)NC(C)(C)C)nc2n1 + Oc1cc(-c2nc(-c3ccccc3)[nH]c2-c2ccncc2)ccc1Cl [L779450] (first compound 0.1 µM, partner dose 0.2 µM) | 113% | 64.5% | 216% | 46.6% | 120% | 91.2% | 25.1% | 77.3% | 42.8% | 134% | 105% | 152% | 102% | 215% | 187% | 136% |  | 
